According to publication PMC6829621:
Results are given in words; binding and its absence hold for the method and conditions named. Some results given as binding are weak or reduced against the parent protein; the word gives no strength.

Amino acid sequences for entries named in this document (tags omitted). A change or cut given only in a name is not applied to a line headed by its entry. Chains listed by the source or under a name are the forms on record and can include a tag or linker. Residues count along the entry.
UniProt Q6T264, residues 12-74: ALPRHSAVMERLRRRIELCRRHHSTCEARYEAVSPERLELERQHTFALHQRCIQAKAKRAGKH
UniProt Q01705, residues 1751-2293: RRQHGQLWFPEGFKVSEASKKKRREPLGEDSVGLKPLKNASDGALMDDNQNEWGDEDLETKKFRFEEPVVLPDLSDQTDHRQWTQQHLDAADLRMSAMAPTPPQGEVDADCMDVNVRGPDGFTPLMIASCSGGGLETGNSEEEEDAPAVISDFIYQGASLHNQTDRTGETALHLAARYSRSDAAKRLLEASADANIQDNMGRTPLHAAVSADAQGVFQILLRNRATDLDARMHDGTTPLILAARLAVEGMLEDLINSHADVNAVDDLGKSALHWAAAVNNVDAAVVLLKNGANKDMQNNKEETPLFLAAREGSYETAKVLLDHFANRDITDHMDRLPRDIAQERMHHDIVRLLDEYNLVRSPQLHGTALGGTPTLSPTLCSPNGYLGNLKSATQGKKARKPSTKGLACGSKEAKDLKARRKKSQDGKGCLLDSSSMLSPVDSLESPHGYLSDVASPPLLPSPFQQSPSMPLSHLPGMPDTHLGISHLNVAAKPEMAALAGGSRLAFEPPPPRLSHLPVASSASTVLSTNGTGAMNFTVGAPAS
UniProt P28159: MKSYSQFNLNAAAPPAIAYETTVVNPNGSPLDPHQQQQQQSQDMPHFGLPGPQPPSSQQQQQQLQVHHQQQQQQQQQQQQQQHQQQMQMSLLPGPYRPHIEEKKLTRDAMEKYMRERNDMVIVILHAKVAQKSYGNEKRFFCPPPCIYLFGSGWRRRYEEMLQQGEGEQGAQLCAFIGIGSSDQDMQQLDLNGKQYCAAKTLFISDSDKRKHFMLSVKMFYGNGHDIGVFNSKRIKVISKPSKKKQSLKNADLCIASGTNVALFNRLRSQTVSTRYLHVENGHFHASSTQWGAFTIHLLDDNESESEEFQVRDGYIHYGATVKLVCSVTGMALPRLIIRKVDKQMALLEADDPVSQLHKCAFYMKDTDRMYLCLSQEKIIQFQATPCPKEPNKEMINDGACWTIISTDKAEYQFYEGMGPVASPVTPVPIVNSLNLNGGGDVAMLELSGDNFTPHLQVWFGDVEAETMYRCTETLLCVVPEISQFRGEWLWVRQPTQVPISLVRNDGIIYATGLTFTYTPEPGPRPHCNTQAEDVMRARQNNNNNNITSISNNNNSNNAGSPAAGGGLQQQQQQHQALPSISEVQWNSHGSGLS
Su(H)^LLL (P28159, form named): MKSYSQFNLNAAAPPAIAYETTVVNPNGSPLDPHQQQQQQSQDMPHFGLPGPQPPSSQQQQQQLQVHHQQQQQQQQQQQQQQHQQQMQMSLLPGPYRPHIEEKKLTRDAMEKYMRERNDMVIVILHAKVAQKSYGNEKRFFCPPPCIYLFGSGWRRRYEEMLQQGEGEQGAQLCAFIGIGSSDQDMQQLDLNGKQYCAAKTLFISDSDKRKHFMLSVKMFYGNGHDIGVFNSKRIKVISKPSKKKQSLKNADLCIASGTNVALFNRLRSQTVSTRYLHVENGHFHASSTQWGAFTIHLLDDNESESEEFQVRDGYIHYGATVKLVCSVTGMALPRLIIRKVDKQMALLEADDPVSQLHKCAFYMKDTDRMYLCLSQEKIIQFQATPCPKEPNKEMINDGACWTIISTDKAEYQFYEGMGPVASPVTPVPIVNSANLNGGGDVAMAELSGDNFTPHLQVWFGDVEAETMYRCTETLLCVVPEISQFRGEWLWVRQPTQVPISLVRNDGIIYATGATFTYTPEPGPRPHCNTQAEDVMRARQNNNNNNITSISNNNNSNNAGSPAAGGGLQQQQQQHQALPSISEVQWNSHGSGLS
UniProt P31266: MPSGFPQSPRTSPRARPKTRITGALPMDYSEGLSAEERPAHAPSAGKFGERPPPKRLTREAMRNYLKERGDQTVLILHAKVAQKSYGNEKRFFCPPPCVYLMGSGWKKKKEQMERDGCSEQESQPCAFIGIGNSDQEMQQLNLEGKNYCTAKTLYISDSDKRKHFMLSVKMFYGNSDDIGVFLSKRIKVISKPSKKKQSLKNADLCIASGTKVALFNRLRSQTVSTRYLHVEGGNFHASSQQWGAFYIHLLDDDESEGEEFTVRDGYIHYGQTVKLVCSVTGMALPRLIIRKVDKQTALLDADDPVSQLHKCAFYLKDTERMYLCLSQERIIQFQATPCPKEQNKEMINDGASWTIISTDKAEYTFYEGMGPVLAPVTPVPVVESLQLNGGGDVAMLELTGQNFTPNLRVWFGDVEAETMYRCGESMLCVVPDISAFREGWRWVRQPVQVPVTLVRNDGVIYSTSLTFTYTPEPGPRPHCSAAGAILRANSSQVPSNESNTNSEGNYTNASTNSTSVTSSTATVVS
RBPJ^LLL (P31266, form named): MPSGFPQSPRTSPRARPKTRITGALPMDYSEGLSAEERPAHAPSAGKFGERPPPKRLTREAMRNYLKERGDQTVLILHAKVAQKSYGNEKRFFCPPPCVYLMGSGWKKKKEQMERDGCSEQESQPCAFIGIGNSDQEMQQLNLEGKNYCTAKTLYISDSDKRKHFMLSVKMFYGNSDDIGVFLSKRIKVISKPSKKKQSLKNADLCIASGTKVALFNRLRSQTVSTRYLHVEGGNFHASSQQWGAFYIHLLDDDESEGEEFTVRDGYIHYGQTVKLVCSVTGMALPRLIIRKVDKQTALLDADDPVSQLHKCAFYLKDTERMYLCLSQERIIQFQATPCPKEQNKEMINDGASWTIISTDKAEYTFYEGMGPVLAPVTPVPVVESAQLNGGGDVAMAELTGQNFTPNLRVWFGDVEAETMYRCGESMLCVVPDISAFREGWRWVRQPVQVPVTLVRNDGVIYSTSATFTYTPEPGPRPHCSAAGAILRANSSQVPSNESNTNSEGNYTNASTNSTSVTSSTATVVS

How the values were obtained:
[1] = target: MamL (aa 12-74) of mouse Mastermind-like protein 1 (Mus musculus) (UniProt Q6T264); assay: two-hybrid; yeast protein three-hybrid assay with M. musculus components: MamL (aa 12-74) in pEG vector, NICD (aa 1751-2293) in pESC vector, CSL variants in pJG vector; lacZ reporter; qualitative, and quantified in Miller Units
[2] = target: mouse NICD (aa 1751-2293) of Notch homolog protein 1 (Mus musculus) (UniProt Q01705); assay: as above
[3] = target: T1, Drosophila Mastermind (aa 118-194) (D. melanogaster) (UniProt P21519); assay: two-hybrid; yeast protein three-hybrid assay with D. melanogaster components: Mam (aa 118-194) in pEG vector, RICN (aa 1762-2176) in pESC vector, CSL variants in pJG vector; lacZ reporter; qualitative, and quantified in Miller Units
T1 sequence: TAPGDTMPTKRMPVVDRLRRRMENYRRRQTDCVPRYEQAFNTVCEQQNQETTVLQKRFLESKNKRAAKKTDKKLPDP

[4] = target: T2, RICN, intracellular Notch including RAM domain (aa 1762-2176) (D. melanogaster) (UniProt P07207); assay: as above
T2 sequence: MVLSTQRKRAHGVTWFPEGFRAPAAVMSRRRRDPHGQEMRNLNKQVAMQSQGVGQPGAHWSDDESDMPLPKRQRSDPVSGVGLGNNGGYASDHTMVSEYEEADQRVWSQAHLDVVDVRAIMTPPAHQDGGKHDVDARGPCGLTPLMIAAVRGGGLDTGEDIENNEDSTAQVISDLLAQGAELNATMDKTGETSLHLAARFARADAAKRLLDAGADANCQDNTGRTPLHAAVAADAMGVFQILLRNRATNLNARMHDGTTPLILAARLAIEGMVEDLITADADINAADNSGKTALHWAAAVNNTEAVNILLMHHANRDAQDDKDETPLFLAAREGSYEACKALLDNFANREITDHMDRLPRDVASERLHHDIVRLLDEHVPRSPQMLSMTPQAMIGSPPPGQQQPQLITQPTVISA

| Substance | binding [1] | binding [2] | binding [3] | binding [4] |
| --- | --- | --- | --- | --- |
| Suppressor of Hairless, wild type (from UniProt P28159 1-594) | binds | binds |  |  |
| mouse RBPJ, wild type (from UniProt P31266 1-526) | binds | binds | binds | binds |

Further lines, results first:

| binding [1] | binding [2] | binding [3] | binding [4] | Substance |
| --- | --- | --- | --- | --- |
| binds | binds |  |  | Su(H)^LLL (from UniProt P28159 1-594) |
| binds | binds | binds | binds | RBPJ^LLL (from UniProt P31266 1-526) |
| binds |  |  |  | mouse NICD (aa 1751-2293) of Notch homolog protein 1 (from UniProt Q01705 1751-2293) (domain or fragment) |
